# Results are given in words; binding and its absence hold for the method and conditions named. In cells and extracts the contact can be indirect. Here binding means that the protein was enriched with, or labelled near, the bait; the list need not be complete. For some assays here: Tags and fused reporters may be left off the sequences shown.
# Protein sequences, listed by entry. Tags and fused reporters are not part of them.
# UniProt P0A8V2: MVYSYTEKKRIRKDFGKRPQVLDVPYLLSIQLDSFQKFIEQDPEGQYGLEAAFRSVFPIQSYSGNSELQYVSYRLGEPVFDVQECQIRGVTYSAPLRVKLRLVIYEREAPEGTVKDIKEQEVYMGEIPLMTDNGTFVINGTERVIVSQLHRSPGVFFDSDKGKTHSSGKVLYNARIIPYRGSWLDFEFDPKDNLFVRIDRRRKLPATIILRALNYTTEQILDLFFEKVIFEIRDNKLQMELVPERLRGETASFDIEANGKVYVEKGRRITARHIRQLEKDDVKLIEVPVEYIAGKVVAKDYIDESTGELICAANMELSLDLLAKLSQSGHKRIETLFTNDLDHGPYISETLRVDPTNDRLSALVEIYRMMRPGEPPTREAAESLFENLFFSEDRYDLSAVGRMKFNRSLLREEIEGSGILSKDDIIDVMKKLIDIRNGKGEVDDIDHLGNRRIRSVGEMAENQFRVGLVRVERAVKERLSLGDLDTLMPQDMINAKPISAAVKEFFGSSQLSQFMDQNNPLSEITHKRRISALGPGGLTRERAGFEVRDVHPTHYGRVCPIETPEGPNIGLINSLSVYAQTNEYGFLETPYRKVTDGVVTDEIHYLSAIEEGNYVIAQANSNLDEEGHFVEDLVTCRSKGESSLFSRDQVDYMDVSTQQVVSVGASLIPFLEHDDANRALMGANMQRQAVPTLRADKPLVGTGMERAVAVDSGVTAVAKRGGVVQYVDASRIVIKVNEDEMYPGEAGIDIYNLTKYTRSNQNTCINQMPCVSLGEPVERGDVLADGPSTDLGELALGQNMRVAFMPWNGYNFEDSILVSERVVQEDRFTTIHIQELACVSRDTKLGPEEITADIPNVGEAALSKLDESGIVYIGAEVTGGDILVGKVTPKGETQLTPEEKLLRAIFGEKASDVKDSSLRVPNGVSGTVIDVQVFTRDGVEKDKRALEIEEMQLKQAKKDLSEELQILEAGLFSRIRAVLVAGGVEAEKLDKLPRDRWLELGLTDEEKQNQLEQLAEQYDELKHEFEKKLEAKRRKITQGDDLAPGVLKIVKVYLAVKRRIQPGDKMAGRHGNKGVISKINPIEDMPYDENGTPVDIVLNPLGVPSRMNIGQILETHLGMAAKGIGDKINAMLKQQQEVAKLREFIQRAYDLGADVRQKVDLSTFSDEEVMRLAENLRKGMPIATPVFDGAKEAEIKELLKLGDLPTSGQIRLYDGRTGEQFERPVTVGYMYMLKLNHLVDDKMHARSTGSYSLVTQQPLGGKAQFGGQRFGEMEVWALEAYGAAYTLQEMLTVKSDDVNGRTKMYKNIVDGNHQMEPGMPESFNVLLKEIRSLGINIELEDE
# UniProt P60240: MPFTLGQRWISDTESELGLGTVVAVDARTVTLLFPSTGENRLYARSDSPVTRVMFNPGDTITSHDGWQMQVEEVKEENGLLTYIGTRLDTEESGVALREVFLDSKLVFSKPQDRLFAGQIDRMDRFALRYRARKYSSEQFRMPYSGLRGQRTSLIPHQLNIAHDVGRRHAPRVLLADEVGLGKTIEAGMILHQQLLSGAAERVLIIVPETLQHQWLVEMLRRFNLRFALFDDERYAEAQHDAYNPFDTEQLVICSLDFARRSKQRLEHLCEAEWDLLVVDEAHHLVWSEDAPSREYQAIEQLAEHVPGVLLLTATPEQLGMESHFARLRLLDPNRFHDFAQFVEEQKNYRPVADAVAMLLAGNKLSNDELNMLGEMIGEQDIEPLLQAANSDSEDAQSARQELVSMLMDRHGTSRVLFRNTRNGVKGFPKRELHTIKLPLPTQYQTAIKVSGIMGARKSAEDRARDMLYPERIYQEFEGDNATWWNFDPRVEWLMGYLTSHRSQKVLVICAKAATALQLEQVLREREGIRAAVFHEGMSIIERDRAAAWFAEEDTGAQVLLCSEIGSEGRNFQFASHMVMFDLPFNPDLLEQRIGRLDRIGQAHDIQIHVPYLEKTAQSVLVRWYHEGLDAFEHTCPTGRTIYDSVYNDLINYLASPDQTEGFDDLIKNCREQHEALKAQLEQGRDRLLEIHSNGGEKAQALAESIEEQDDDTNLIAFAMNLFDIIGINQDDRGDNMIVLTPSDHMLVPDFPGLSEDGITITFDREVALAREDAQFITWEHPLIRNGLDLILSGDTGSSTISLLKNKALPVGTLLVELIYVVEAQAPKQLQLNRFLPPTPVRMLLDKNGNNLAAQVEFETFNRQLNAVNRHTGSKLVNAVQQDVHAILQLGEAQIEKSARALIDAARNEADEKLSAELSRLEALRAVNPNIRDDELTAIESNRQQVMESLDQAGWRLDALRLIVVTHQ
# T1: YacL-SPA (E. coli K12) (UniProt P0A8E5)
# T1 sequence: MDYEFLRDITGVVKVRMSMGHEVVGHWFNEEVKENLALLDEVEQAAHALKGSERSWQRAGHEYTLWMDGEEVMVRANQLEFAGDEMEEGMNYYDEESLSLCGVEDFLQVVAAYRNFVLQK
# T2: SPA-tagged YacL (E. coli K12) (UniProt P0A8E5)
# T2 sequence: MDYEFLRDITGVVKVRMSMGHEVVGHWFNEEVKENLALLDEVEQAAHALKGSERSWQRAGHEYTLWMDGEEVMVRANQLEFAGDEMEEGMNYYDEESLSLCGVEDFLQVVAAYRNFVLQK
# Tests used:
# NusG-SPA (E. coli K12) = NusG-SPA (E. coli K12) (UniProt P0AFG0); assay: affinity purification with mass spectrometry; lysate of K12 strains with endogenous C-terminal SPA tag on anti-FLAG M2 agarose, eluted with TEV protease; LFQ against mock enrichment from K12 wild type, t-test 1% FDR, S0 of 2
# YacL-SPA (E. coli K12) = molecular target: T1, YacL-SPA (E. coli K12); assay: as above
# [1] = molecular target: T2, SPA-tagged YacL (E. coli K12); assay: affinity purification with mass spectrometry; lysates of K12 strains with endogenously C-terminal SPA-tagged yacL, nusG or rpoB on Anti-FLAG M2 agarose, 2 h at 4 °C, eluted with TEV protease; LFQ against K12 wildtype mock enrichment, 1% FDR
# RpoB-SPA (E. coli K12) = RpoB-SPA (E. coli K12) (UniProt P0A8V2); assay: affinity purification with mass spectrometry; lysate of K12 strains with endogenous C-terminal SPA tag on anti-FLAG M2 agarose, eluted with TEV protease; LFQ against mock enrichment from K12 wild type, t-test 1% FDR, S0 of 2
# [2] = molecular target: SPA-tagged NusG (E. coli K12) (UniProt P0AFG0); assay: affinity purification with mass spectrometry; lysates of K12 strains with endogenously C-terminal SPA-tagged yacL, nusG or rpoB on Anti-FLAG M2 agarose, 2 h at 4 °C, eluted with TEV protease; LFQ against K12 wildtype mock enrichment, 1% FDR
# [3] = molecular target: SPA-tagged RpoB (E. coli K12) (UniProt P0A8V2); assay: as above
binding (NusG-SPA (E. coli K12)),binding (YacL-SPA (E. coli K12)),Molecule,further results
binds,binds,NusA (from UniProt P0AFF6 1-495),
binds,binds,RapA (from UniProt P60240 1-968),binding (RpoB-SPA (E. coli K12)): binds

# Further lines, the molecule ahead of its results:
Molecule,binding (NusG-SPA (E. coli K12)),binding (YacL-SPA (E. coli K12)),further results
NusG (from UniProt P0AFG0 1-181),,,binding [1]: binds
"YacL (protein, UniProt P0A8E5 1-120) MDYEFLRDITGVVKVRMSMGHEVVGHWFNEEVKENLALLDEVEQAAHALKGSERSWQRAGHEYTLWMDGEEVMVRANQLEFAGDEMEEGMNYYDEESLSLCGVEDFLQVVAAYRNFVQQK",,,binding [2]: binds; binding [3]: binds
"msyB (protein, UniProt P25738 1-124) MTMYATLEEAIDAAREEFLADNPGIDAEDANVQQFNAQKYVLQDGDIMWQVEFFADEGEEGECLPMLSGEAAQSVFDGDYDEIEIRQEWQEENTLHEWDEGEFQLEPPLDTEEGRAAADEWDER",binds,binds,
"GreB (protein, UniProt P30128 1-158) MKTPLVTREGYEKLKQELNYLWREERPEVTKKVTWAASLGDRSENADYQYNKKRLREIDRRVRYLTKCLENLKIVDYSPQQEGKVFFGAWVEIENDDGVTHRFRIVGYDEIFGRKDYISIDSPMARALLKKEVGDLAVVNTPAGEASWYVNAIEYVKP",binds,,

# From publication PMC8196013
